Consider one molecule from publication PMC10066299.

Assay [1] deals with T1, IFT139 (TTC21B/THM1) with N-terminal mCherry tag (human) (UniProt Q7Z4L5).
T1 sequence: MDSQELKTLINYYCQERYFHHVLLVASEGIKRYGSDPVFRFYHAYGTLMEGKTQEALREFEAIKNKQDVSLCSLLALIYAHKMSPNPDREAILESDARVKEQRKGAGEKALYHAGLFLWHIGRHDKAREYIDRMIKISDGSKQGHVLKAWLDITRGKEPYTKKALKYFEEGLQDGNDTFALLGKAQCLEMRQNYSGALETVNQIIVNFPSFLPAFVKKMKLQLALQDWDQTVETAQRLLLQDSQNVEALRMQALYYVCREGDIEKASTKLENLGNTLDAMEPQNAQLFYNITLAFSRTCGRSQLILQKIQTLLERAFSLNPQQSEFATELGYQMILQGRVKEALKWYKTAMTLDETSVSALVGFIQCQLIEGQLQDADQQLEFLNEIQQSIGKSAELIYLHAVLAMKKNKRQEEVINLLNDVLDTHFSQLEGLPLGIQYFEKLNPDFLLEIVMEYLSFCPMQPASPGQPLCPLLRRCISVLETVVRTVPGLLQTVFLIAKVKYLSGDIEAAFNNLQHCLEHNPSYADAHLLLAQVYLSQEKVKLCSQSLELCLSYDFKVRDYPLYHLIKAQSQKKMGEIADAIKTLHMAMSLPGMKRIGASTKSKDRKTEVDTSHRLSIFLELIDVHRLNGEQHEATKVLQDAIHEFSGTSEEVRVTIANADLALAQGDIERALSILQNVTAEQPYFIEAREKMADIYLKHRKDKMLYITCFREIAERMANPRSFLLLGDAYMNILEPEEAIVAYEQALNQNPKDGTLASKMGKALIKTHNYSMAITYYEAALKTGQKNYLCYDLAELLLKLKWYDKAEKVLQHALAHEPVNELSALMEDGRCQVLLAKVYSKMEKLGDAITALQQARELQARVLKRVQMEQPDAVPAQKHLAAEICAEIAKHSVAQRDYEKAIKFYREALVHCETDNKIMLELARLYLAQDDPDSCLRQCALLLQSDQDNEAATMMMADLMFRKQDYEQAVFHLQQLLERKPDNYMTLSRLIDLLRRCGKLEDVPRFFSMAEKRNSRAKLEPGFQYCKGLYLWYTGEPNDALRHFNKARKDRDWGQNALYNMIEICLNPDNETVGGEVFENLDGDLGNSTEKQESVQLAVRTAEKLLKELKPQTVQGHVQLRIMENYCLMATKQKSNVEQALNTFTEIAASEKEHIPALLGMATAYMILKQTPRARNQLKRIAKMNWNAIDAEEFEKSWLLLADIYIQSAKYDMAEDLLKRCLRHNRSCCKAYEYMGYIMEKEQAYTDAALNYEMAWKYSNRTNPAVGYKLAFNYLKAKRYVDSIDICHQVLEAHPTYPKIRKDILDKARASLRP
Put plainly: cryo-EM structure; IFT-A complex co-expressed in HEK293F and co-purified; composite map from the IFT-A and IFT-A (-IFT139) datasets; 20 mM Tris-HCl pH 8.0, 200 mM NaCl, 2 mM DTT, 2 mM FFC-8 added; both purified.

The target in a further assay is T2, IFT144 (WDR19) (human) (UniProt Q8NEZ3).
T2 sequence: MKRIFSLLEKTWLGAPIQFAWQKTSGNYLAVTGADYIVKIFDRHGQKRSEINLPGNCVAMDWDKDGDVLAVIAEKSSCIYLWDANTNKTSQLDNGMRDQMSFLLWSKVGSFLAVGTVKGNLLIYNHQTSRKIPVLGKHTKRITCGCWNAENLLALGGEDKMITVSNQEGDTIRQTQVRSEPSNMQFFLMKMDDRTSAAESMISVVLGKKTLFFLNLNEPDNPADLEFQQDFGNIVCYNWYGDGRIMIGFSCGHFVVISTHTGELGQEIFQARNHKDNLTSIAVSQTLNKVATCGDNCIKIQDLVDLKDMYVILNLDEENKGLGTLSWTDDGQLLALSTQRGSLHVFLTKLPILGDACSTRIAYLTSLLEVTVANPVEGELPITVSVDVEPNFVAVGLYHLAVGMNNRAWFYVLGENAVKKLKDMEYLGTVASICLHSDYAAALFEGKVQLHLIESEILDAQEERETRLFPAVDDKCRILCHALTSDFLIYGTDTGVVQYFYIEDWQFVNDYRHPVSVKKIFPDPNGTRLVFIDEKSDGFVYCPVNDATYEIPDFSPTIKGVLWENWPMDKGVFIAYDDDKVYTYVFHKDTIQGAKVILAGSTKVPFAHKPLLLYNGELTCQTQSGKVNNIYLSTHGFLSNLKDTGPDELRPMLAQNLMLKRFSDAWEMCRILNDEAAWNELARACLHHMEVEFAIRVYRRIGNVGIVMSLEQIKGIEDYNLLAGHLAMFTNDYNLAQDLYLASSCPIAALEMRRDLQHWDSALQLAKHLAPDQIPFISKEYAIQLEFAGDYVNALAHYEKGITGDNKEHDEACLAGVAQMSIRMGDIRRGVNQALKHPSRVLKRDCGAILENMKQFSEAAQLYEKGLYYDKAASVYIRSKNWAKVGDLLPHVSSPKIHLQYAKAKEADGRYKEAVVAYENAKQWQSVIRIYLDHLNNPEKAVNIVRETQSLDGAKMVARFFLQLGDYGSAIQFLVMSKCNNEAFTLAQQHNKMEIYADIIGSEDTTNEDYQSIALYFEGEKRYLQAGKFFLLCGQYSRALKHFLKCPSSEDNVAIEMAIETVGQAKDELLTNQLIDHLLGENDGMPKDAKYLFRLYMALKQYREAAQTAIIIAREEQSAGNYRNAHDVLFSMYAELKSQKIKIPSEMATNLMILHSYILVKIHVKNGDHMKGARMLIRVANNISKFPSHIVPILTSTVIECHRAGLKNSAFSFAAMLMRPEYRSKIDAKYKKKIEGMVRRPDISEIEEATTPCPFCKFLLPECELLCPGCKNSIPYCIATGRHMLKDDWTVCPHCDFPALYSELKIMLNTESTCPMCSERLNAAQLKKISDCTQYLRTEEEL
The description is as above.

Results are given in words; binding and its absence hold for the method and conditions named. Some binding calls cover weakened binding; strength is not graded here. For some assays here: Tags and fused reporters may be left off the sequences shown.

B1: IFT121 (WDR35) (protein, UniProt Q9P2L0 1-1181)
chain: MFFYLSKKISIPNNVKLQCVSWNKEQGFIACGGEDGLLKVLKLETQTDDAKLRGLAAPSNLSMNQTLEGHSGSVQVVTWNEQYQKLTTSDENGLIIVWMLYKGSWIEEMINNRNKSVVRSMSWNADGQKICIVYEDGAVIVGSVDGNRIWGKDLKGIQLSHVTWSADSKVLLFGMANGEIHIYDNQGNFMIKMKLSCLVNVTGAISIAGIHWYHGTEGYVEPDCPCLAVCFDNGRCQIMRHENDQNPVLIDTGMYVVGIQWNHMGSVLAVAGFQKAAMQDKDVNIVQFYTPFGEHLGTLKVPGKEISALSWEGGGLKIALAVDSFIYFANIRPNYKWGYCSNTVVYAYTRPDRPEYCVVFWDTKNNEKYVKYVKGLISITTCGDFCILATKADENHPQEENEMETFGATFVLVLCNSIGTPLDPKYIDIVPLFVAMTKTHVIAASKEAFYTWQYRVAKKLTALEINQITRSRKEGRERIYHVDDTPSGSMDGVLDYSKTIQGTRDPICAITASDKILIVGRESGTIQRYSLPNVGLIQKYSLNCRAYQLSLNCNSSRLAIIDISGVLTFFDLDARVTDSTGQQVVGELLKLERRDVWDMKWAKDNPDLFAMMEKTRMYVFRNLDPEEPIQTSGYICNFEDLEIKSVLLDEILKDPEHPNKDYLINFEIRSLRDSRALIEKVGIKDASQFIEDNPHPRLWRLLAEAALQKLDLYTAEQAFVRCKDYQGIKFVKRLGKLLSESMKQAEVVGYFGRFEEAERTYLEMDRRDLAIGLRLKLGDWFRVLQLLKTGSGDADDSLLEQANNAIGDYFADRQKWLNAVQYYVQGRNQERLAECYYMLEDYEGLENLAISLPENHKLLPEIAQMFVRVGMCEQAVTAFLKCSQPKAAVDTCVHLNQWNKAVELAKNHSMKEIGSLLARYASHLLEKNKTLDAIELYRKANYFFDAAKLMFKIADEEAKKGSKPLRVKKLYVLSALLIEQYHEQMKNAQRGKVKGKSSEATSALAGLLEEEVLSTTDRFTDNAWRGAEAYHFFILAQRQLYEGCVDTALKTALHLKDYEDIIPPVEIYSLLALCACASRAFGTCSKAFIKLKSLETLSSEQKQQYEDLALEIFTKHTSKDNRKPELDSLMEGGEGKLPTCVATGSPITEYQFWMCSVCKHGVLAQEISHYSFCPLCHSPVG
As to B1, the binding result (in assay [1]; in the assay with IFT144 (WDR19) (human)) was “binds” throughout.
